Laboratory results published in PubChem BioAssay AID2685 (National Center for Advancing Translational Sciences (NCATS), 2010).
Some of the results follow. Some results for these compounds are left out of this collection, so the calls shown say nothing about other tests.

Assay: qHTS Assay for Lipid Storage Modulators in Drosophila S3 Cells
Settings: BODIPY lipid droplet fluorescence, 18-24 h, measured here: cell count max response, cells fed with added oleic acid

Row | Compound | cell number change [%]
1 | CN(C)c1ccc(C(=O)NCC2(N(C)C)CCCCC2)cc1 | -1.39
2 | CN(C)C1CCCC1OC(=O)C(O)(c1ccccc1)c1ccccc1 (centres undefined) | 8.24
3 | CCN1CCCC(OC(=O)C2(O)c3ccccc3C=Cc3ccccc32)C1 (centres undefined) | -9.18
4 | O=C(NCC1(N2CCCCC2)CCCCC1)c1cccc(Br)c1 | -9.21
5 | COc1ccc(C(=O)NCC2(N(C)C)CCCCC2)cc1 | 17.1
6 | O=C(NCC1(N2CCCCC2)CCCCC1)c1cc([N+](=O)[O-])ccc1Cl | 19.7
7 | COc1cc(SC)ccc1C(=O)NCC1(N(C)C)CCCCC1 | 25.2
8 | COc1ccc(Br)c(C(=O)NCC2(N3CCCCC3)CCCCC2)c1 | 1.23
9 | CC(C)Oc1ccc(C(=O)NCC2(N(C)C)CCCCC2)cc1 | 0.213
